Among all 300,000 compounds or so, about 2,300 (0.77%) were called active. Inconclusive results, whose numbers are uncertain, are shown with a selection of clear calls.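 How the source made its calls: active means more than half of replicate wells show activity change below -50%, luminescence cut by over half; inconclusive means some wells, but at most half, below -50%; inactive means no replicate well below -50%.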
experiment: HSF1 inhibitors in luciferase reporter cells, primary screen, cell-based, NIH3T3, luminescence (AID 2098); conditions: NIH3T3-HGL HSE-luciferase, MG132-induced, luminescence 8 h; active compounds read low; screened at 7.5 µM (by protocol);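 further: luciferase reports HSF-1 transcriptional activity via heat shock element; 0% = median of DMSO wells and -100% = zero luminescence signal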

| SMILES | activity change, negative = inhibition |
| --- | --- |
| CN(C)CC(O)CN(c1ccccc1)c1ccccc1 (stereo not given) | inactive: -8.51% |
| COCCNC(=O)C(OC(=O)c1cccs1)c1ccccc1 (stereo not given) | active: -54.7% |
| COc1ccc(CNC(=O)C2CCCN(c3ncnc4c3nc3n4CCCCC3)C2)cc1 (stereo not given) | inactive: -0.197% |
| CC(C)CC(NC(=O)c1ccco1)C(=O)Nc1ccc2c(c1)OCCO2 (stereo not given) | inconclusive: -50.4% |
| Cc1cccc(NCc2cc(Cl)cc(Cl)c2O)n1 | inactive: -0.132% |
| Nc1nonc1-n1nnc(C(=O)N/N=C/c2ccc(OCc3ccccc3)cc2)c1CNc1ccccc1 | inactive: 16.5% |
| COC(=O)c1ccc(NC(=O)CCN2C(=O)CSC2=O)cc1 | inconclusive: -28.2% |
| C=CCN(c1ccccc1Cl)S(=O)(=O)c1cccc(C(=O)NCCc2ccc(OC)cc2)c1 | inactive: 7.83% |
| CCN1CCN(Cc2ccc(NC(=O)c3ccc(C)c(NC(=O)c4ccno4)c3)cc2C(F)(F)F)CC1 | inconclusive: -49.7% |
| COc1cc(NC(=O)CN(C)S(=O)(=O)c2ccc3c(c2)CC(C)N3C(C)=O)cc(OC)c1 (stereo not given) | active: -84.5% |
| CC(=O)N1c2ccc(S(=O)(=O)N(C)CC(=O)Nc3ccccc3C)cc2CC1C (stereo not given) | active: -60.9% |
| Cc1csc(NC(=O)CN2C(=O)c3ccccc3C2=O)c1C(N)=O | inactive: -5.43% |
| CCCCn1c(C(C)NC(=O)CC)nc2ccccc21 (stereo not given) | inconclusive: -49.3% |
| O=C1OC2(CCCCC2)OC(=O)C1=CNc1nccs1 | inconclusive: -50% |
| NC(=S)N/N=C1\CC(n2nnnc2-c2ccccc2Cl)C2COC1O2 (stereo not given) | inconclusive: -50.2% |
| CC(C)N1CCN(Cc2ccc3nsnc3c2)CC1CCO (stereo not given) | inconclusive: -49.5% |
| CN1CCC(C2(O)c3ccccc3CCc3ccccc32)CC1 | inconclusive: -44.2% |
| CC(C)c1nnc(NC(=O)c2nc(S(=O)(=O)Cc3ccc(F)cc3)ncc2Cl)s1 | active: -84.1% |
| COc1ccc(-c2nc(-c3ccc(Br)o3)no2)cc1 | inactive: 25.6% |
| COc1ccccc1Nc1nc(NCCCN(C)C)nc(N)c1[N+](=O)[O-] | active: -73% |
| NC(=NC(=O)c1ccccc1)N1N=CCC1c1ccccc1 (stereo not given) | inactive: 9.21% |
| CCCC(NC(=O)COc1cc2c(c3oc(=O)c(C)c(C)c13)CCC(C)(C)O2)C(=O)O (stereo not given) | inactive: -7.4% |
| Cn1c(/C=C/c2ccccc2)nc2ccccc2c1=O | active: -79.8% |

Ordered by molecular weight (rising): some entries from above

| SMILES | activity change, negative = inhibition |
| --- | --- |
| COc1ccc(-c2nc(-c3ccc(Br)o3)no2)cc1 | inactive: 25.6% |
| COC(=O)c1ccc(NC(=O)CCN2C(=O)CSC2=O)cc1 | inconclusive: -28.2% |
| C=CCN(c1ccccc1Cl)S(=O)(=O)c1cccc(C(=O)NCCc2ccc(OC)cc2)c1 | inactive: 7.83% |

Carrying on.

| SMILES | activity change, negative = inhibition |
| --- | --- |
| COc1ccc(N(Cc2cc3cc(OC)ccc3[nH]c2=O)S(=O)(=O)c2ccc(NC(C)=O)cc2)cc1 | inconclusive: -49.9% |
| CCOc1cccc(/C=N/NC(=S)Nc2ccccc2[N+](=O)[O-])c1O | active: -79% |
| CC(C)(C)N=C1NN=C(c2ccc(Cl)cc2)CS1 | inconclusive: -49.3% |
| O=C(NCc1ccco1)C(c1cccs1)N(C(=O)C1COc2ccccc2O1)c1cccc(O)c1 (stereo not given) | inactive: 12.6% |
| N#Cc1cccc(C#N)c1Oc1ccc(S(=O)(=O)Nc2ccc(Cl)cc2)cc1 | inconclusive: -49.9% |
| Cc1ccc(-c2nnn(CC(=O)N(Cc3cccs3)C(C(=O)NC3CCCC3)c3ccncc3)n2)cc1 (stereo not given) | active: -55.2% |
| COc1ccc(Oc2ccc(S(=O)(=O)N3CCCCC3)cc2S(=O)(=O)N2CCCCC2)cc1 | inconclusive: -39.8% |
| COC(=O)C(Cc1c[nH]c2ccccc12)N1CCS(=O)(=O)CC1 (stereo not given) | inactive: 5.21% |
| CCOC(=O)c1ccc(Cl)c(NC(=O)c2ccc(-c3ccccc3)cc2)c1 | inconclusive: -48.3% |
| COC(=O)CC1COc2ccccc2N1S(=O)(=O)c1ccc(OC)cc1 (stereo not given) | inconclusive: -23.9% |
| CN(C)S(=O)(=O)N1CCc2ccccc21 | inactive: -4.53% |
| c1ccc(Cc2nnc3sc(-c4cccs4)nn23)cc1 | inconclusive: -49.5% |
| Cn1cc(CN2CCC(Oc3ccc(C(=O)N4CCCC4)cc3)CC2)cn1 | inactive: 3.07% |
| O=C(NCc1cccs1)c1ccc([N+](=O)[O-])cc1Cl | active: -69.5% |
| COc1ccc2[nH]c3c(=O)n(CCCN4CCOCC4)cnc3c2c1 | active: -63.4% |
| NC(=S)NN=C(Cc1ccccc1)Cc1ccccc1 | inactive: -6.66% |
| COc1ccc(C)cc1NC(=O)C1CC(=O)N(CCc2ccccc2)C1 (stereo not given) | inconclusive: -26.2% |
| NC(=O)c1sc2nc3c(c(-c4cccs4)c2c1N)CCCCC3 | inconclusive: -51.1% |
| COc1cc(/C=C(/C#N)c2ccc(C)cc2)ccc1Oc1ccc([N+](=O)[O-])cn1 | inactive: -3.94% |
| N#C/C(=C\Nc1ccc2cn[nH]c2c1)c1nc(-c2ccccc2)cs1 | inconclusive: -50.1% |
| CCN=C1S/C(=C\c2ccc(-c3cccc(C(=O)O)c3)o2)C(=O)N1CC | active: -51.5% |
| Cc1nc2ccc(C(=O)N3CCN(c4ccccc4)CC3)cc2s1 | inconclusive: -50.5% |
| Cc1ccc(Cl)cc1NC(=O)CN1CCOCC1 | inactive: 0.569% |

| SMILES | activity change, negative = inhibition |
| --- | --- |
| COc1ccc(/C=N/N(C)C2=NCCN2)c(OC)c1OC | active: -86.2% |
| CSCCC(NC(=O)CCC(=O)OCC(=O)[C@@]1(O)CCC2[C@@H]3CCC4=CC(=O)C=C[C@]4(C)C3[C@@H](O)C[C@@]21C)C(=O)O (stereo not given in full) | active: -51.7% |
| O/N=C1\CCCC\C1=C/c1ccccc1 | inconclusive: -21.6% |
| CCOc1ccc(OCc2cccc(C(=O)N/N=C/c3cccnc3)c2)cc1 | inconclusive: -50.9% |
| CCN(c1ccccc1)S(=O)(=O)c1nnc(NC(=O)C(C)(C)C)s1 | inactive: -3.22% |
| CCC(=O)NC1CC2CCCC(C1)N2Cc1ccc(C)cc1 (stereo not given) | inactive: -2.08% |
| COc1ccc(N(CC(=O)Nc2cccnc2)S(=O)(=O)c2ccccc2)cc1Cl | inconclusive: -66.2% |
| CC(=O)c1ccc(OCC(O)CN2CCC(C)CC2)cc1 (stereo not given) | inconclusive: -50.6% |
| O=c1cc(Nc2ccc3c(c2)OCCO3)[nH]c(=O)n1-c1ccc(Br)cc1 | inconclusive: -46.6% |
| CCCCOC(=O)CSCC(=O)Nc1cc(C)on1 | inconclusive: -48.7% |
| CCOc1ccc(NCc2nnc(SCc3ccccc3Cl)n2-c2ccccc2)cc1 | inconclusive: -54% |
| CC(C)Oc1ccccc1C1NC(=O)CCC1[N+](=O)[O-] (stereo not given) | inactive: -3.01% |
| Cc1ccc(Nc2cc(C)nc3nc(C)nn23)cc1 | inactive: -4.58% |
| CCCN(CCC)C(=O)CSc1nc2ccsc2c(=O)n1NC(=O)c1ccccc1 | active: -57.4% |
| COc1cccc(CN2C(=O)CCC2(C)C(=O)NC2CCCCC2)c1 (stereo not given) | inconclusive: -26.8% |
| CC(Cc1ccccc1)C(=O)Nc1ccccc1 (stereo not given) | active: -64.7% |
| CC(C)(C)C(=O)Nc1ccc(N=Nc2ccccc2)cc1 | active: -78.1% |
| COc1ccc(N2CCN(C(CNC(=O)C(=O)NCc3ccncc3)c3ccco3)CC2)cc1 (stereo not given) | inconclusive: -50.6% |
| N/C(CC(=O)Nc1ccc(F)cc1)=N\O | inconclusive: -47.5% |
| CC(=O)Nc1nn(C)c2nc(C)cc(C)c12 | inconclusive: -29% |
| Cc1cccc(NCc2ccc(O)c3ncccc23)c1 | inconclusive: -53.8% |
| COC(=O)[C@@H]1CCCN1C(=O)CCc1nnc(C2CCCCC2)o1 | inactive: 5.41% |
| COc1ccccc1-n1cc([C@@H]2C[C@H]3CN(c4ccccc4)C(=O)[C@]34CCCN24)cn1 | inactive: 2.51% |

| SMILES | activity change, negative = inhibition |
| --- | --- |
| CCc1ccc(-c2nc(CSCC(=O)NCc3ccco3)c(C)o2)cc1 | active: -71.8% |
| CCCN1C(=O)/C(=C\c2ccncc2)SC1=Nc1ccccc1 | inconclusive: -32.8% |
| CCOC(=O)N1C/C(=C\c2ccccc2)C(=O)/C(=C/c2ccccc2)C1 | inactive: 28.8% |
| CCc1c(C)[nH]c2ccc(C)cc2c1=O | inconclusive: -50.2% |
| CCOC(=O)CSc1nc(C)cc(Oc2ccc(=O)n(C)n2)n1 | inconclusive: -47.5% |
| O=C1COc2ccc(N3C(=O)C=CC3=O)cc2N1 | inconclusive: -51.4% |
| CN1CCN(C(=O)/C(=C\c2cccs2)NC(=O)c2ccco2)CC1 | inconclusive: -50.3% |
| CCN(CC)C(=O)C1CCN(S(=O)(=O)c2ccc3c(c2)CCCN3C(=O)C2CCC2)CC1 | inactive: -7.92% |
| COc1ccc(NS(=O)(=O)NC(=O)c2cn(C)c3ccccc23)cc1 | inconclusive: -53% |
| Cc1ccc(-c2cc3c(N=O)c4ccccc4c-3n[nH]2)cc1 | inconclusive: -46.4% |
| O=C(c1ccccc1)c1cc2c(cc1[N+](=O)[O-])OCCO2 | inactive: -8.66% |
| CCN(CC)c1ncnc2ccc(Br)cc12 | active: -53.3% |
| CCc1ccccc1NC(=S)N(CCN1CCOCC1)Cc1ccccc1F | inactive: 0.0636% |
| Cc1ccc(NC(=S)/C(=C(\[O-])c2ccc(C)c([N+](=O)[O-])c2)[n+]2ccccc2)cc1C | inconclusive: -49.6% |
| CCOC(=O)c1sc(NC(=O)CN2C(=O)NC3(CCCCCCC3)C2=O)c(C(=O)OCC)c1C | inconclusive: -16.7% |
| O=C1CN(C(=O)COc2c(Cl)cccc2Cl)c2ccccc2N1 | active: -74.4% |
| CCCCC1=CC2=C(c3ccco3)C(=O)C(C)(OC(=O)c3ccc(OC)cc3)C(=O)C2=CN1Cc1ccco1 (stereo not given) | inconclusive: -45.3% |
| CCCCn1c(N)c(N(CC(C)C)C(=O)c2oc3c(Cl)cccc3c2C)c(=O)[nH]c1=O | inconclusive: -26.5% |
| Cn1cc(/C=C(\C#N)C(=O)Nc2cccc([N+](=O)[O-])c2)c2ccccc21 | inconclusive: -32.7% |
| COc1cc(/C=N/NC(=S)Nc2cccc(C(=O)O)c2)ccc1O | inconclusive: -42.3% |
| Cn1c(=NC(=O)C2CC2)sc2cccc(F)c21 | inactive: 3.85% |
